# From PubChem BioAssay AID504706 (National Center for Advancing Translational Sciences (NCATS), 2011)
# Out of some 320,000 compounds screened, about 200 (0.062%) were called active. About 6% were inconclusive and are not listed. Calls follow the shape of the dose curve; as a rule, active = well fitted activation curve with a large enough effect; inconclusive = small, poorly fitted or top-dose-only effect; inactive = no such curve, though single readings can be large or run the other way. Only a part is listed here, and it is no random draw. Where no call is shown, the source filed none.
# Test: qHTS assay for re-activators of p53 using a Luc reporter; also: nearly all actives have a fitted effect of over 45% in size; as to activity change, positive = activation: % of control where 0% means no effect
# Settings: H1299 p53-A138V BP100-luciferase reporter, luminescence, 24 h; activity change, positive = activation: at 92.2 µM (top of the series)
# How it was run: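 p53-null H1299 cells stably carrying temperature-sensitive p53-A138V and a BP100-luciferase reporter were pinned with compounds (4-point, 1:5 series) and held 24 hrs at 37 deg C. Luminescence was read 10 min after detection reagent.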
# Potency is read from the fitted curve at half-maximal effect.
Structure (SMILES),"activity change, positive = activation",Potency
Cc1nnc(SCC(=O)Nc2ccc(-c3nc4ccccc4s3)cc2)s1,76.7%,–
COc1ccc2cc(-c3cc(C(=O)OCC(=O)Nc4c(C)n(C)n(-c5ccccc5)c4=O)c4ccccc4n3)ccc2c1,49.3%,–
c1ccc2[nH]c(-c3ccnc4ccccc34)nc2c1,inactive: 7.08%,–
O=c1c(-c2ccc3c(c2)OCCO3)coc2cc(OC3OC(CO)C(O)C(O)C3O)ccc12 (configuration not stated),36.6%,–
Nc1ccc(-c2nc3ccccc3[nH]2)cc1,24.1%,–
CCc1cc2c(=O)n(Cc3ccco3)c(SCc3c(C)noc3C)nc2s1,inactive: -22.6%,–
Fc1cccc(/C=N/Nc2nncc3ccccc23)c1,26.4%,–
COc1ccc(OCc2cccc(C(=O)Nc3cc(C)on3)c2)cc1,49.4%,–
COC(=O)c1[nH]c2ccc(F)cc2c1NC(=O)CCN1CC(C)OC(C)C1 (configuration not stated),inactive: -31.1%,–
CCOC(=O)CNC(=O)c1cc(-c2ccc3c(c2)OCCO3)oc1C,38.8%,–
O=C(NCCOc1ccccc1F)c1cc(F)c(F)cc1Cl,24.6%,–
Cc1cccc(Nc2cc(=O)[nH]c(=O)[nH]2)c1C,35.3%,–
O=C(NCc1cccnc1)/C(=C\c1ccc(-c2cccc(Cl)c2)o1)S(=O)(=O)c1ccccc1,inactive: -37%,–
Cc1ccc(NC(=O)c2ccc3nc[nH]c3c2)cc1C,139%,–
CCN(c1ccccc1)S(=O)(=O)c1ccc(C(=O)N(CCCN(C)C)c2nc3cc4c(cc3s2)OCO4)cc1,inactive: -41.7%,–
O=C(/C=C/Nc1ccc(F)cc1)c1ccco1,–,active: 44.7 µM
Oc1ccc(-c2cnc(-c3ccc(O)cc3)nc2)cc1,–,active: 14.1 µM
O=C(c1ccc(-c2ccc([N+](=O)[O-])cc2)o1)N1CCCCC1,57.3%,–
CC(C)Oc1ccc(C(=O)OC(C)C(=O)NC2CCCCC2C)cc1 (configuration not stated),inactive: -34%,–
N#C/C(Cn1c[n+](NC(=O)Nc2ccccc2)cn1)=N/O,124%,–
Cc1ccc(N/C=C/C(=O)c2ccccc2)cc1C,55.3%,–
O=C(Nc1ccc(COc2ccccc2)cc1)c1cccc([N+](=O)[O-])c1,50.5%,–

# Record cards, from the list above:
# Cc1ccc(NC(=O)c2ccc3nc[nH]c3c2)cc1C as listed: activity change, positive = activation: 139%
# CC(C)Oc1ccc(C(=O)OC(C)C(=O)NC2CCCCC2C)cc1 (configuration not stated) as listed: activity change, positive = activation: inactive: -34%
